The target of this experiment is T1, GST-PrkC (Serine/threonine-protein kinase PrkC) (Bacillus subtilis str. 168) (UniProt O34507).
T1 sequence: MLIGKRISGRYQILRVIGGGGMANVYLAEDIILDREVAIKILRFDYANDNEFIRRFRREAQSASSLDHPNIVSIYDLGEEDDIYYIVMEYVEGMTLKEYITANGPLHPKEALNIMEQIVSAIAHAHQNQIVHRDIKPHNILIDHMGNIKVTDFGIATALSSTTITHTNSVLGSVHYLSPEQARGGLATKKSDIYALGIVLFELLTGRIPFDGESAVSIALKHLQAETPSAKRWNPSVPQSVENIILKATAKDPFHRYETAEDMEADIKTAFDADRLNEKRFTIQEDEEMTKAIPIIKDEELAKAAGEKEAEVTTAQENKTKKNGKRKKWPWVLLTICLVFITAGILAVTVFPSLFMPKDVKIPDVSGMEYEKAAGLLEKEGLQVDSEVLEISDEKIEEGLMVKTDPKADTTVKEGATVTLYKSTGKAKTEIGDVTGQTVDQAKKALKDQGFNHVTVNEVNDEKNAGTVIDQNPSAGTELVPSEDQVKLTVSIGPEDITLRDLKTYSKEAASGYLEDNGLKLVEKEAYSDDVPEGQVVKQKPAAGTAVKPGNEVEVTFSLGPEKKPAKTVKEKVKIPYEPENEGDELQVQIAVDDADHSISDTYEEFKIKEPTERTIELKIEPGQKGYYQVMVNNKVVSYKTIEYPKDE
In words: affinity purification with mass spectrometry; GST-PrkC on glutathione resin incubated with B. subtilis spore lysate at 4 °C; resin washed; bound proteins eluted with 20 mM reduced glutathione; eluate digested with trypsin and analysed by LC-MS/MS; hits filtered at 1% FDR, >=2 unique peptides; only the target purified.

No constants are given. Whether binding was seen depends on the method and setting. Binding seen in cells or lysates may run through a third protein. Here binding means that the protein was enriched with, or labelled near, the bait; the list need not be complete. Where a sequence is shown, tags or fusion partners need not be part of it.

B1: Proline-tRNA ligase (protein, UniProt O31755 1-564)
chain: MRQSLTLIPTLREVPADAEAKSHQLLLRAGFIRQNTSGVYSYMPLAYKVIQNIQQIVREEMEKIDAVEMLMPALQQAETWQESGRWYTYGPELMRLKDRHGREFALGATHEEVITSLVRDEVKSYKRLPLTLYQIQSKFRDEKRPRFGLLRGREFIMKDAYSFHASAESLDETYQKMYEAYSNIFARCGINVRPVIADSGAMGGKDTHEFMALSAIGEDTIAYSDESQYAANIEMAEVLHQEVPSDEEPKALEKVHTPNVKTIEELTAFLQVSAEACIKSVLFKADDRFVLVLVRGDHEVNDIKVKNLLHAEVVELATHEEVIQQLGTEPGFVGPVGIHQDVEVYADQAVKAMVNAVAGANEGDHHYKNVNVNRDAQIKEFADLRFIKEGDPSPDGKGTIRFAEGIEVGQVFKLGTRYSEAMNATYLDENGRAQPMLMGCYGIGVSRTLSAIAEQHHDEKGLIWPKSVAPYDLHILALNMKNDGQRELAEKLYADLKAEGYEVLYDDRAERAGVKFADSDLIGLPIRITVGKRADEGIVEVKIRQTGESTEISVDELSAFISKQ
With B1, the binding result is given as “binds”.

B2: Amidophosphoribosyltransferase (protein, UniProt P00497 12-476)
chain: CGVFGIWGHEEAPQITYYGLHSLQHRGQEGAGIVATDGEKLTAHKGQGLITEVFQNGELSKVKGKGAIGHVRYATAGGGGYENVQPLLFRSQNNGSLALAHNGNLVNATQLKQQLENQGSIFQTSSDTEVLAHLIKRSGHFTLKDQIKNSLSMLKGAYAFLIMTETEMIVALDPNGLRPLSIGMMGDAYVVASETCAFDVVGATYLREVEPGEMLIINDEGMKSERFSMNINRSICSMEYIYFSRPDSNIDGINVHSARKNLGKMLAQESAVEADVVTGVPDSSISAAIGYAEATGIPYELGLIKNRYVGRTFIQPSQALREQGVRMKLSAVRGVVEGKRVVMVDDSIVRGTTSRRIVTMLREAGATEVHVKISSPPIAHPCFYGIDTSTHEELIASSHSVEEIRQEIGADTLSFLSVEGLLKGIGRKYDDSNCGQCLACFTGKYPTEIYQDTVLPHVKEAVLTK
On to B2, for which the binding result is given as “binds”.

B3: Oligopeptide transport ATP-binding protein AppD (protein, UniProt P42064 1-328)
chain: MSTLLEVNNLKTYFFRKKEPIPAVDGVDFHISKGETVALVGESGSGKSITSLSIMGLVQSSGGKIMDGSIKLEDKDLTSFTENDYCKIRGNEVSMIFQEPMTSLNPVLTIGEQITEVLIYHKNMKKKEARQRAVELLQMVGFSRAEQIMKEYPHRLSGGMRQRVMIAIALSCNPKLLIADEPTTALDVTIQAQVLELMKDLCQKFNTSILLITHDLGVVSEAADRVIVMYCGQVVENATVDDLFLEPLHPYTEGLLTSIPVIDGEIDKLNAIKGSVPTPDNLPPGCRFAPRCPKAMDKCWTNQPSLLTHKSGRTVRCFLYEEEGAEQS
For the molecule B3, the binding result is “binds”.

B4: Uncharacterized phosphatase PhoE (protein, UniProt O07617 1-193)
chain: MTAVCLVRHGETDWNLQQKCQGKTDIPLNATGERQARETGEYVKDFSWDIIVTSPLKRAKRTAEIINEYLHLPIVEMDDFKERDYGDAEGMPLEERTKRYPDNIYPNMETLEELTDRLMGGLAKVNQAYPNKKVLIVAHGAAIHALLTEISGGDPELQSTRLVNACLSNIEFAEEKWRIKDYNINSHLSGFIK
As to B4, the binding entry is recorded as “binds”.

B5: 2-methylisocitrate lyase (protein, UniProt P54528 1-301)
chain: MSWIVNKQSSQEELAGRFRKLMSAPDILQIPGAHDGMAALLAKEAGFSAIYLSGAAYTASRGLPDLGIITSAEIAERAKDLVRAADLPLLVDIDTGFGGVLNAARTAREMLEARVAAVQMEDQQLPKKCGHLNGKQLVPIKEMAQKIKAIKQAAPSLIVVARTDARAQEGLDAAIKRSEAYIEAGADAIFPEALQAENEFRQFAERIPVPLLANMTEFGKTPYYRADEFEDMGFHMVIYPVTSLRAAAKACERMFGLMKEHGSQKEGLHDMQTRKELYDTISYYDYEALDKTIAKTVLPDE
Take B5: the binding entry is reported as “binds”.
